Measurements as given in PubChem BioAssay AID2685 (National Center for Advancing Translational Sciences (NCATS), 2010).
Some of the results follow. Shown are side measurements of this screen, not its main read-out; they come without a call. Most of these compounds were active or inconclusive in the main read-out, so they are no random draw. The note in brackets gives the kind of curve behind each potency; many fits are weak.

Assay: qHTS Assay for Lipid Storage Modulators in Drosophila S3 Cells;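 as to cell number change: cells counted by Cell Tracker Red CMTPX staining in the red channel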
Settings: BODIPY lipid droplet fluorescence, 18-24 h; for cell number change: measured here: cell count max response, cells fed with added oleic acid
Method in brief: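 Drosophila S3 cells loaded with oleic acid (400 uM, as added) and compounds at several concentrations; lipid droplets imaged by 488-nm laser-scanning cytometry, 500–530 nm intensity and object ratio to cell channel. Percent activity normalized to 20 uM Triacsin C.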

[1] = measured here: cell number channel AC50, cells fed with added oleic acid
[2] = measured here: lipid fluorescence (Fed channel) AC50, cells fed with added oleic acid

| SMILES | AC50 [1] | AC50 [2] | cell number change [%] |
| --- | --- | --- | --- |
| CCCCCC(=O)N/N=C(\C)c1ccccn1 | 0.0651 µM [rising, partial curve, poor fit] | 2.06 µM [rising, partial curve] |  |
| Cc1ccccc1C(=O)OCC(=O)N(C)c1c(N)n(Cc2ccccc2)c(=O)[nH]c1=O |  |  | 4.41 |
| COc1ccc(N2CCN(CCNC(=O)c3ccc4nc5ccccc5c(=O)n4c3)CC2)cc1 |  |  | -23.6 |
| COc1ccc(OCC(=O)NCCCCCCNC(=O)COc2ccc(OC)cc2)cc1 |  | 29.1 µM [rising, single point] | 14.2 |
| COc1cccc(CNC(=O)C2CCCN(S(C)(=O)=O)C2)c1 (configuration not stated) |  |  | 10.2 |
| COc1ccc(C)cc1S(=O)(=O)N(C)CC(=O)N1CCN(C)CC1 | 7.31 µM [falling, full curve] |  | -74.2 |
| Cc1ccc(CCNC(=O)C2CCC(=O)N2C2CCCC2)cc1 (configuration not stated) | 14.6 µM [falling, partial curve] | 29.1 µM [falling, single point] | -87.3 |
| Cc1cc2c3c(c1C)C(=O)C(=O)N3C(C)(C)CC2C (configuration not stated) |  | 16.4 µM [falling, single point] | -30.6 |
| O=[N+]([O-])c1ccc2cn[nH]c2c1 | 0.13 µM [rising, full curve, poor fit] | 0.206 µM [rising, full curve] |  |
| CN(C)/C=N/C(=S)Nc1ccccc1F | 2.91 µM [rising, single point] |  | 31.7 |
| Cc1ccc(S(=O)(=O)NCCCCCC(=O)Nc2ccccc2C)cc1 |  | 14.6 µM [rising, partial curve, poor fit] | -8.23 |
| COc1cc(OC)cc(-c2nc3nc(C)c(CCC(=O)O)c(C)n3n2)c1 |  | 29.1 µM [rising, single point] | 8.79 |
| COc1cc(/C=C/C(=O)N2CC(C)OC(C)C2)cc(OC)c1OC (configuration not stated) |  | 6.51 µM [rising, single point] | 0.275 |
| O=c1c2ccccc2nc(SCCN2CCCCC2)n1CCc1ccccc1 |  | 3.26 µM [falling, partial curve] | -0.289 |
| COc1ccc(NC(C(=O)Nc2cccc(C(C)=O)c2)c2ccccc2)cc1 (configuration not stated) |  |  | 15.2 |
| Clc1cccc(C2Nc3cccc4cccc(c34)N2)c1Cl | 13 µM [falling, partial curve] | 1.84 µM [falling, full curve] | -53.3 |
| CCc1ccc(C2=CC(c3cc(Br)ccc3F)n3ncnc3N2)cc1 (configuration not stated) |  | 16.4 µM [falling, single point] | -13.4 |
| Cc1nnc(C)n1/N=C/c1ccc(O)cc1 |  | 13 µM [falling, partial curve] | -29.6 |
| CCc1ccccc1NC(=O)COC(=O)C1C2CC3OC(=O)C1C3C2 (configuration not stated) |  | 0.206 µM [falling, single point] | 2.1 |
| COc1cccc(C(=O)NCCSCc2ccccc2Cl)c1 |  |  | 12.2 |

In another format: 3 of the compounds above.
SMILES | AC50 [1] | AC50 [2] | cell number change [%]
Cc1ccc(CCNC(=O)C2CCC(=O)N2C2CCCC2)cc1 (configuration not stated) | 14.6 µM [falling, partial curve] | 29.1 µM [falling, single point] | -87.3
Cc1cc2c3c(c1C)C(=O)C(=O)N3C(C)(C)CC2C (configuration not stated) |  | 16.4 µM [falling, single point] | -30.6
O=[N+]([O-])c1ccc2cn[nH]c2c1 | 0.13 µM [rising, full curve, poor fit] | 0.206 µM [rising, full curve] | 

The listing continues:

| SMILES | AC50 [1] | AC50 [2] | cell number change [%] |
| --- | --- | --- | --- |
| O=C(c1ccccc1)c1ccc(C(=O)N2CCCC(C(F)(F)F)C2)cc1 (configuration not stated) | 25.9 µM [falling, partial curve] | 0.366 µM [falling, partial curve, poor fit] | -31.4 |
| COCCn1c(C)cc(C(=O)COC(=O)c2cc3c(s2)CCC3)c1C | 29.1 µM [rising, single point] |  | 43.1 |
| CC(C)(C)OC(=O)CNC(=O)c1[nH]cnc1C(=O)NC(c1ccccc1)c1ccccc1 |  |  | -7.78 |
| CC(C)(C)CC(=O)Nc1ccc(-c2cn3cccnc3n2)cc1 |  | 0.00517 µM [falling, full curve, poor fit] | -1.8 |
| CCOc1cc(/C=N/O)cc(Cl)c1OC |  | 29.1 µM [rising, single point] |  |
| CCCCn1c(SCC(=O)/C(C#N)=C(\C)N)nc2ccccc2c1=O | 0.58 µM [falling, single point] | 23.1 µM [rising, partial curve] |  |
| O=CN1CCN(C(=O)COc2ccc(Cl)cc2Br)CC1 |  | 23.1 µM [rising, single point] | -3.86 |
| O=[N+]([O-])c1ccc(/C=N/Nc2nc(N3CCCCCC3)nc(N3CCCCCC3)n2)o1 |  | 29.1 µM [falling, single point] | -23.8 |
| Cc1ccc(NC(N)=S)cc1C | 0.58 µM [falling, single point] | 0.92 µM [falling, single point] | 0.341 |
| O=C(CSc1ncn[nH]1)NC12CC3CC(CC(C3)C1)C2 |  | 29.1 µM [falling, single point] | -17.2 |
| CC(NC(=O)c1ccc(Cl)cc1)c1nnc(SCC(=O)NC2=NCCS2)n1C (configuration not stated) | 4.61 µM [falling, full curve, poor fit] |  | -28.9 |
| CCOC(=O)c1sc(N)c(C#N)c1COC(=O)CNC(=O)c1ccccc1 |  | 0.461 µM [rising, full curve] | -8.13 |
| CCN(CC)CCN1C(=O)C(=O)/C(=C(/O)c2ccc(S(=O)(=O)N3CCOCC3)cc2)C1c1ccc(C)cc1 (configuration not stated) |  |  | 4.01 |
| Clc1nc(-c2ccccn2)nc2scc(-c3ccccc3)c12 | 1.64 µM [rising, partial curve] |  |  |
| Cc1csc(NC(=O)CSc2sc3c(O)cc(=O)[nH]c3c2C#N)n1 |  | 4.11 µM [rising, single point] | 18.8 |
| CN(C)S(=O)(=O)c1cccc(NC(=O)c2cc(=O)[nH]c3ccccc23)c1 |  | 29.1 µM [rising, single point] | 16.9 |
| CC(=O)Nc1nonc1-c1ccccc1 |  | 3.66 µM [falling, full curve, poor fit] | -1.23 |
| Oc1ccccc1-c1nnc(COc2ccc(Cl)cc2Cl)o1 |  | 0.651 µM [falling, full curve] | 16.8 |
| CCC(C)(C)NC(=O)C(c1ccc(OC)cc1)N(Cc1ccccc1)C(=O)CCC(=O)Nc1cc(C)on1 (configuration not stated) |  |  | 19.1 |
| COC(=O)CSc1nnc(-c2ccco2)o1 |  |  | -3.3 |

| SMILES | AC50 [1] | AC50 [2] | cell number change [%] |
| --- | --- | --- | --- |
| C/C(N)=C(/C#N)C(=O)CSc1nnc(-c2ccccc2Br)o1 | 0.366 µM [rising, full curve, poor fit] | 1.84 µM [rising, partial curve] |  |
| CN(C)CCCN(C(=O)COc1ccccc1)c1nc2c(Cl)cccc2s1 | 29.1 µM [falling, single point] | 0.58 µM [falling, partial curve, poor fit] | -48.6 |
| CC(=O)N(Cc1cc2cc(C)c(C)cc2n2nnnc12)CC1COCCO1 (configuration not stated) | 0.164 µM [rising, full curve, poor fit] |  | 40.5 |
| O=C(Nc1ccccc1Cl)N1CCN(c2ccc3nnc(-c4ccccc4)n3n2)CC1 | 6.51 µM [rising, single point] | 6.51 µM [rising, single point] |  |
| CCOC(=O)c1ccc(NC(=O)C(CC)CC)cc1 |  |  | 8.23 |
| COc1ccc(C(=O)CN2C(=O)NC3(CCCc4ccccc43)C2=O)c(OC)c1 (configuration not stated) |  | 18.4 µM [falling, single point] | 7.57 |
| Fc1ccc(-c2nn(-c3ccccc3)cc2CNCc2ccccc2)cc1 |  |  | -17.8 |
| Cc1ccc([C@@H]2[C@@H]3C(=O)N(C)C(=O)[C@@H]3[C@]3(C)C(=O)N(CCO)CC(=O)N23)o1 | 0.0517 µM [rising, full curve, poor fit] |  | 18.3 |
| CC(C(=O)Nc1ccccc1)c1ccc(-c2ccccc2)c(F)c1 (configuration not stated) | 8.2 µM [rising, partial curve] | 23.1 µM [rising, partial curve] | 77.4 |
| Cn1cc(CN2CCC(n3nccc3NC(=O)c3ccccc3Cl)CC2)c2ccccc21 | 3.66 µM [rising, partial curve] | 3.66 µM [rising, full curve] | 4.61 |
| N#CC1(C#N)[C@@H](C(=O)C23CC4CC(CC(C4)C2)C3)C12CCOCC2 | 7.31 µM [falling, partial curve, poor fit] | 0.326 µM [falling, partial curve, poor fit] | -21.5 |
| COc1ccc(-n2nc3cc(C)c(NC(=O)c4cccnc4)cc3n2)cc1 | 0.461 µM [rising, full curve] | 1.46 µM [rising, full curve] | 17.1 |
| Cc1ccccc1C(=O)NNC(=O)c1cc(S(=O)(=O)N2CCOCC2)ccc1C | 1.16 µM [falling, full curve] | 1.03 µM [falling, full curve] | -47.9 |
| Cc1ccc(-c2[nH]ncc2/C=N/n2c(COc3ccccc3)nc3ccccc3c2=O)cc1 | 29.1 µM [falling, single point] | 29.1 µM [falling, single point] | -61.6 |
| CCCCCOC(=O)C1[C@H]2C(=O)N(c3ccccc3CC)C[C@]23C=C[C@H]1O3 (some centres not stated) |  |  | 2.87 |
| Cc1ccc(C2CC2c2n[nH]c(=S)n2-c2ccc(C)cc2)cc1 (configuration not stated) |  | 0.731 µM [falling, full curve] | -15.4 |
| O=C(c1cc2c(s1)CCCC2)n1cccn1 | 29.1 µM [rising, single point] |  | 53 |
| CC(OC(=O)Cc1c(F)cccc1Cl)C(=O)NCCC1=CCCCC1 (configuration not stated) | 29.1 µM [rising, single point] | 25.9 µM [falling, partial curve, poor fit] | 60.8 |
| CSc1nc(S(=O)(=O)c2ccc(C)cc2)c(Cl)s1 |  |  | -31.3 |
| COc1ccc(CCN(C)Cc2nc(-c3cnccn3)no2)cc1OC |  | 0.651 µM [rising, full curve, poor fit] | 23.9 |
